Publication PMC8009681
These are yes or no findings as the source states them, for the method shown. A result given as binding can be weak or reduced; the word gives no strength. For some assays here: Tags and fused reporters may be left off the sequences shown.

The chains behind the UniProt entries cited, without tags or fusion partners. Where a name states a change or a piece, a line headed by the entry shows the natural chain unless it says otherwise.
UniProt Q9LXU1: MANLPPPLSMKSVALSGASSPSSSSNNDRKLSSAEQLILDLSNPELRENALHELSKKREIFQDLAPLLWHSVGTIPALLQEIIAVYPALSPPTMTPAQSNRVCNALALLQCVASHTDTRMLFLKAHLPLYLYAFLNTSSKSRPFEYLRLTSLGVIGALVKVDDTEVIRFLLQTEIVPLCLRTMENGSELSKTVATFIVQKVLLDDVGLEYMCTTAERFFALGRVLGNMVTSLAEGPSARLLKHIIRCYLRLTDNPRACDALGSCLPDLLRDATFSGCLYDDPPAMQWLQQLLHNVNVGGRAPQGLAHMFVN

Assays:
[1] = target: T1, phyA-BD (Arabidopsis thaliana) (UniProt P14712); assay: two-hybrid; growth assay, AH109, CSM LTH- plates with 20 μM phycocyanobilin and 3-AT (5, 10 or 30 mM by panel), R light (660 nm; phyA Pfr), 26°C
T1 sequence: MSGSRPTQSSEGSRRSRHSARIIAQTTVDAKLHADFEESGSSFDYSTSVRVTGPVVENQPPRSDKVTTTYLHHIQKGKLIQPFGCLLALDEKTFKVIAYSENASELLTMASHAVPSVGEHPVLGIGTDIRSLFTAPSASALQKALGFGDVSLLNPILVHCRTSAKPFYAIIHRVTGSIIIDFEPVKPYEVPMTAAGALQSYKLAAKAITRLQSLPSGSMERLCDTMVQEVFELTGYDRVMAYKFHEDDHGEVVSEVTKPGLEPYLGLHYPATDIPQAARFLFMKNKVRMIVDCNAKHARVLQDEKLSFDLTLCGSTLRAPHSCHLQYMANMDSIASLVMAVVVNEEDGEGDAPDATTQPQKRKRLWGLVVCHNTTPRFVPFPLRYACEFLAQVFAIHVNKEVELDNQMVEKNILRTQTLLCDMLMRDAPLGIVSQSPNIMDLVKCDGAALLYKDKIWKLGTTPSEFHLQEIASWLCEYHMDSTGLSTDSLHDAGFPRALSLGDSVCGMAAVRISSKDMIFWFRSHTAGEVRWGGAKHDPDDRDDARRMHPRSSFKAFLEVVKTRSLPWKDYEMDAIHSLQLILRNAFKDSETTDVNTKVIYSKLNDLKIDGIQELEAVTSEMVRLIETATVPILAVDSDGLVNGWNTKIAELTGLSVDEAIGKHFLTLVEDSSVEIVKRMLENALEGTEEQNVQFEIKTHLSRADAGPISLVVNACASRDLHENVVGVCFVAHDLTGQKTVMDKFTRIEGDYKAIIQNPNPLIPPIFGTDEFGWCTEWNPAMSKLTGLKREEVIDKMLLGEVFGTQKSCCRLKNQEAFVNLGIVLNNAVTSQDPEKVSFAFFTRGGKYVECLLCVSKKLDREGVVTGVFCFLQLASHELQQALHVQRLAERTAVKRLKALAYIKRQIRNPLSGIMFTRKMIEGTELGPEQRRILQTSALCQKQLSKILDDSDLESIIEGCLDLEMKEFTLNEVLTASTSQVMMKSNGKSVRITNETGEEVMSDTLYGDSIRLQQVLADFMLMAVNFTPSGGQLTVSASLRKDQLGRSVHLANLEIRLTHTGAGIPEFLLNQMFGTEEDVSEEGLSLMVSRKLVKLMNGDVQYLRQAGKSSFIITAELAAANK

[2] = target: T2, phyA-LUC-BD (Arabidopsis thaliana) (UniProt P14712); assay: yeast three-hybrid competition assay; AH109 with a two-hybrid pair and a NOT1 fragment as potential competitor; R light, CSM LTH- plates with 20 μM phycocyanobilin and increasing amounts of 3-AT
T2 sequence: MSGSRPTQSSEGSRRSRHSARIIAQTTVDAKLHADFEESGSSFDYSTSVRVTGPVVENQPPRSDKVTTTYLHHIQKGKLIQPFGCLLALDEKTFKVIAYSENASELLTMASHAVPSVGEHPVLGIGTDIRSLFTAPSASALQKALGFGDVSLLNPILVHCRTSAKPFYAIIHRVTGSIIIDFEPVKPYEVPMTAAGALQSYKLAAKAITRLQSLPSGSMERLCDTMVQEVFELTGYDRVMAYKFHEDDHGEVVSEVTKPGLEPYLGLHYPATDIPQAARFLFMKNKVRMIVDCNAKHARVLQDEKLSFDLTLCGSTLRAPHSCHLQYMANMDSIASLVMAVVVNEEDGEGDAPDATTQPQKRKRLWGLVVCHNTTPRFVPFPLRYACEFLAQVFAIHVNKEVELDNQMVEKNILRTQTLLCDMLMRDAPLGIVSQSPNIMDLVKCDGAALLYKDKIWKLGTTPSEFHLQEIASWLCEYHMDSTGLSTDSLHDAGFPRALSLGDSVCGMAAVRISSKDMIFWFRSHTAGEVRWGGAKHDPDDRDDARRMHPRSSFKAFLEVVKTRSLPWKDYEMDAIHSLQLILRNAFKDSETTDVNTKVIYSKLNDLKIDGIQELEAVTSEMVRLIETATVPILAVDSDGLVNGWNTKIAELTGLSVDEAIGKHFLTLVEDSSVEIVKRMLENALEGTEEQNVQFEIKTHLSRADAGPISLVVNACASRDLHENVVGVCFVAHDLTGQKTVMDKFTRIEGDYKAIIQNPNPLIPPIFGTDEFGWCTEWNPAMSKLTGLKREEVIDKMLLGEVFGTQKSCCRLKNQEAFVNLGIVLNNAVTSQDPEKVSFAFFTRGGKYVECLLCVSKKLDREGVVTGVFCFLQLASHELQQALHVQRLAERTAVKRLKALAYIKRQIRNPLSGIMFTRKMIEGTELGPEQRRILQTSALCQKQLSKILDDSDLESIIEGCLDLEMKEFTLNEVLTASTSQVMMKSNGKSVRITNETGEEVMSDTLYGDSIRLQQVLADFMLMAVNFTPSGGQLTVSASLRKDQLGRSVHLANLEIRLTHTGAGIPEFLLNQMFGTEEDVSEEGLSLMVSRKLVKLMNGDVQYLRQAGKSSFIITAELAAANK

[3] = target: T1, phyA-BD (Arabidopsis thaliana); assay: two-hybrid; ONPG assay of β-Gal activity, Y190, liquid CSM with 10 μM phycocyanobilin
[4] = target: T1, phyA-BD (Arabidopsis thaliana); assay: two-hybrid; initial Y2H screen for phyA-interacting proteins, done as previously described (Sheerin et al., 2015)
[5] = target: T1, phyA-BD (Arabidopsis thaliana); assay: two-hybrid; growth assay, AH109, CSM LTH- plates with 20 μM phycocyanobilin and 5 mM 3-AT, FR light (740 nm; phyA Pr), 26°C
[6] = target: T3, N-terminal 406 amino acids of phyA (Arabidopsis thaliana) (UniProt P14712); assay: two-hybrid; growth assay, AH109, CSM LTH- plates with 20 μM phycocyanobilin and 3-AT (5, 10 or 30 mM by panel), R light (660 nm; phyA Pfr), 26°C
T3 sequence: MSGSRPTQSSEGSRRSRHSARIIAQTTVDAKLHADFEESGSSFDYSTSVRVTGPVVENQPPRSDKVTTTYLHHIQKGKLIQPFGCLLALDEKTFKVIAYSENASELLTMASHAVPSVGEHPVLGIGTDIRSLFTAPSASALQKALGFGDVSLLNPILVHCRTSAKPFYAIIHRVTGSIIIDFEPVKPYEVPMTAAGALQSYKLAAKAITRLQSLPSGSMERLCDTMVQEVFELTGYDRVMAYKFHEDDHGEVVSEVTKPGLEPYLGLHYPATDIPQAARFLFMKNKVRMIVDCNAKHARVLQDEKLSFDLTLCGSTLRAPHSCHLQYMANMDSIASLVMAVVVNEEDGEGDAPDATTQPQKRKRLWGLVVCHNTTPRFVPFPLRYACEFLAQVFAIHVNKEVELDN

[7] = target: T1, phyA-BD (Arabidopsis thaliana); assay: yeast three-hybrid competition assay; AH109 with a two-hybrid pair and a NOT1 fragment as potential competitor; R light, CSM LTH- plates with 20 μM phycocyanobilin and increasing amounts of 3-AT

NOT9B ΔGWB (two-hybrid fusion) (Arabidopsis thaliana)
binding [1]: binds

HA-AD-NOT9B (Arabidopsis thaliana)
binding [2]: binds

AD-NOT9B (from UniProt Q9LXU1)
binding [3]: binds | binding [4]: binds | binding [5]: binds | binding [6]: binds | binding [1]: binds | binding [7]: binds
